Experimental findings from PMC6328563 are described below.

Chains of the proteins cited; added tags and fusions are not shown.
UniProt P31274: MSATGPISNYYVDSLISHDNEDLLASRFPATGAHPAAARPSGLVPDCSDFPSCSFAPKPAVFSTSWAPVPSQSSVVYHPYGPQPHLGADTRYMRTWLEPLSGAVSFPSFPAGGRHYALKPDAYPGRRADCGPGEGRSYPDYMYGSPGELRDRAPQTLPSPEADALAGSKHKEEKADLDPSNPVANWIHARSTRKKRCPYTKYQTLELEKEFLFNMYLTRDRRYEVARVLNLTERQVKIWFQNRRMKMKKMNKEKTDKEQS
UniProt O15054: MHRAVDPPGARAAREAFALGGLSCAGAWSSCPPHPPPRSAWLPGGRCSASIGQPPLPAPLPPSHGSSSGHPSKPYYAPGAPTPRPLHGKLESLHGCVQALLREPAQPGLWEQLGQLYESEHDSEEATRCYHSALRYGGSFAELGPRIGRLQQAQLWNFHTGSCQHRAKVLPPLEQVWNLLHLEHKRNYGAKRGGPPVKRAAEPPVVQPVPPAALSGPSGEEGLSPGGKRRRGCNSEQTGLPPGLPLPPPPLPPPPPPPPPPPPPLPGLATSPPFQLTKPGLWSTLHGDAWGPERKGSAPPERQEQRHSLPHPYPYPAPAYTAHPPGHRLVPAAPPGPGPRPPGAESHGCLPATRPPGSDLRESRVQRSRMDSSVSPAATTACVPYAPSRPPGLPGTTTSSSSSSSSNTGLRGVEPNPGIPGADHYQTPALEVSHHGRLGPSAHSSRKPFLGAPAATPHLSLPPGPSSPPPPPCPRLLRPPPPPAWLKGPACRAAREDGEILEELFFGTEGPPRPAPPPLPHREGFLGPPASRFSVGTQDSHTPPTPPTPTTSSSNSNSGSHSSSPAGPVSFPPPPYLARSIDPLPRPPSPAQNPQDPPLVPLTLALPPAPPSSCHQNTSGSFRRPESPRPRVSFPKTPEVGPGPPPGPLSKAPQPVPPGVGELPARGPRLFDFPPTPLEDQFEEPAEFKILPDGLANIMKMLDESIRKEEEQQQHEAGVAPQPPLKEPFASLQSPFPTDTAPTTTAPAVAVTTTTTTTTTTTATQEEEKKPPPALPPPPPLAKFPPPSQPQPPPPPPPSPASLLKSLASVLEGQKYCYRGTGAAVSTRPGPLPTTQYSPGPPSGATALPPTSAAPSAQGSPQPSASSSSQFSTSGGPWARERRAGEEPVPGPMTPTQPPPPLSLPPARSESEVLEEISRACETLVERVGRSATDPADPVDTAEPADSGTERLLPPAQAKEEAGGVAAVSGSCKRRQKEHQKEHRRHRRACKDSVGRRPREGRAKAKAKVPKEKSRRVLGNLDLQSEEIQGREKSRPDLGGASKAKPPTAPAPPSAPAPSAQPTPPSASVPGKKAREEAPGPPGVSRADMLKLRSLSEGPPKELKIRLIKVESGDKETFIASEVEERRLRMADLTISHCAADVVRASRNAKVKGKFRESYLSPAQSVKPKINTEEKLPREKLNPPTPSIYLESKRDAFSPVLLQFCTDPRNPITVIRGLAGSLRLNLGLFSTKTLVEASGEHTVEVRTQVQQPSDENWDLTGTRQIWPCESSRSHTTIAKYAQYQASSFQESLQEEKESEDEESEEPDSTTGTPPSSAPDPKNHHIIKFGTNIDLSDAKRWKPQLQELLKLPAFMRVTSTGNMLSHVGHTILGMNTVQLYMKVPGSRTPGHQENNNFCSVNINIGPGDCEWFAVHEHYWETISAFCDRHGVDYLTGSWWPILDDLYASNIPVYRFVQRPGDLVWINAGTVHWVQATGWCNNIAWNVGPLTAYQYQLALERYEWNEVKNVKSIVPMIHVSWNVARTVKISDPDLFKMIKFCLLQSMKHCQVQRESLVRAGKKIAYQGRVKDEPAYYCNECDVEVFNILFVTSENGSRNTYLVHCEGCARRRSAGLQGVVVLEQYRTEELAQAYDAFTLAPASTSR

For this assay, the target named is Myc-tagged HOXC9 (UniProt P31274). Briefly: co-IP; Dynabeads Co-IP kit, detergent lysis, extraction buffer with 150 mM NaCl and 10 µg/ml DNase I; extracts of about 1 x 10^7 BE(2)-C_tetoff-myc-HOXC9 cells (6 days without doxycycline) incubated overnight at 4 °C with Protein G Dynabeads coated with mouse anti-Myc tag (clone 4A6) or mouse IgG; immunoblot with anti-KDM6B and anti-Myc tag. Background: A western blot detects proteins with antibodies after separation by electrophoresis.

These are yes or no findings as the source states them, for the method shown. In cells and extracts the contact can be indirect. Some results given as binding are weak or reduced against the parent protein; the word gives no strength.

As for KDM6B (from UniProt O15054 1-1643), the binding result is given as “binds”.
